The list shows only some results of the screen, not a fair sample: it gathers tests that were run many times, whatever their T/C, doses with no T/C, and many T/C values between a quarter and a half above the control. Further doses and runs are listed elsewhere. T/C: endpoint of the treated group in % of that of the vehicle group. Some doses have a count of surviving animals in place of a T/C: the source holds a T/C of zero for them, seemingly a mark for toxic or unscored doses. Some survivor counts are full or nearly so, which does not show that the dose was tolerated: survival well below the control is almost never listed, so the zero probably covers shortened survival too. Counts of survivors are from the toxicity check (mostly the fifth day) where no day follows; animals may have died later. Schedule codes are those of the source, read here as Q, the interval in days (D) or hours (H), X, the number of doses. Some doses were run more than once; their values stand side by side, smallest first. Some structures stand for samples that the source files as different forms (salt, stereo form or complex); doses refer to the form tested. Where survival is the endpoint, the PubChem record calls one and a half times the control and up active, and a quarter to a half above the control has no call in these data; cut-offs in other NCI protocols can differ. Some T/C values carry the count of animals alive at the toxicity check (mostly the fifth day); where none is given, no animal had died by that day.
System: P388 leukemia ip, CD2F1 mice, survival T/C
Assay: NCI In Vivo Anticancer Drug Screen. Data for tumor model P388 Leukemia (intraperitoneal) in CD2F1 (CDF1) mice
Settings: T/C endpoint: median survival time, higher T/C = longer survival
[1] = dose: 200.0 mg/kg/injection, schedule: Q01DX005 (ip), vehicle: Klucel (hydroxypropylcellulose) (HPC)
[2] = dose: 200.0 mg/kg/injection, schedule: Q01DX009 (ip), vehicle: saline with Tween-80
[3] = dose: 100.0 mg/kg/injection, schedule: Q01DX009 (ip), vehicle: saline
[4] = dose: 50.0 mg/kg/injection, schedule: Q01DX005 (ip), vehicle: Klucel (hydroxypropylcellulose) (HPC)
[5] = dose: 100.0 mg/kg/injection, schedule: Q01DX005 (ip), vehicle: Klucel (hydroxypropylcellulose) (HPC)

For `CC(=O)OC1COC(n2cnc3c(Cl)nc(Cl)nc32)C(OC(C)=O)C1OC(C)=O` (stereo unspecified), the survivor count [1] was 2 of 6.
For `CC(C)(C)N1CC1C#N` (stereo unspecified), the survivor count (dose: 25.0 mg/kg/injection, schedule: Q01DX009 (ip), vehicle: saline with Tween-80) was 6 of 6, the survivor count (dose: 50.0 mg/kg/injection, schedule: Q01DX009 (ip), vehicle: saline with Tween-80) was 0 of 6 and the survivor count (dose: 100.0 mg/kg/injection, schedule: Q01DX009 (ip), vehicle: saline with Tween-80) was 0 of 6.
For `CCC[CH2][Sn]1([CH2]CCC)[O]C2C(CO)OC(n3ccc(N)nc3=O)C2[O]1` (stereo unspecified), the T/C (dose: 0.19 mg/kg/injection, schedule: Q01DX009 (ip), vehicle: other) was 139 % of control, the T/C (dose: 0.39 mg/kg/injection, schedule: Q01DX009 (ip), vehicle: other) was 126 and 132 % of control and the T/C (dose: 0.78 mg/kg/injection, schedule: Q01DX009 (ip), vehicle: other) was 129 and 132 % of control. For the same compound, the T/C (dose: 1.3 mg/kg/injection, schedule: Q01DX005 (ip), vehicle: Klucel (hydroxypropylcellulose) (HPC)) was 126 % of control, the T/C (dose: 2.0 mg/kg/injection, schedule: Q01DX005 (ip), vehicle: Klucel (hydroxypropylcellulose) (HPC)) was 133 % of control and the T/C (dose: 2.2 mg/kg/injection, schedule: Q03HX015 (ip), vehicle: Klucel (hydroxypropylcellulose) (HPC)) was 133 % of control [9 of 10 alive]. The T/C (dose: 3.0 mg/kg/injection, schedule: Q01DX005 (ip), vehicle: Klucel (hydroxypropylcellulose) (HPC)) was 128 % of control, the survivor count (dose: 3.12 mg/kg/injection, schedule: Q01DX009 (ip), vehicle: other) was 0 of 6 and the survivor count (dose: 3.3 mg/kg/injection, schedule: Q03HX015 (ip), vehicle: Klucel (hydroxypropylcellulose) (HPC)) was 8 of 10. For the same compound, the T/C (dose: 4.5 mg/kg/injection, schedule: Q01DX005 (ip), vehicle: Klucel (hydroxypropylcellulose) (HPC)) was 125 and 127 % of control, the survivor count (dose: 5.0 mg/kg/injection, schedule: Q03HX015 (ip), vehicle: Klucel (hydroxypropylcellulose) (HPC)) was 1 of 10 and the survivor count (dose: 6.25 mg/kg/injection, schedule: Q01DX009 (ip), vehicle: other) was 6 of 6. For the same compound, the T/C (dose: 6.7 mg/kg/injection, schedule: Q01DX005 (ip), vehicle: Klucel (hydroxypropylcellulose) (HPC)) was 127 % of control [9 of 10 alive], the survivor count (dose: 10.0 mg/kg/injection, schedule: Q01DX005 (ip), vehicle: Klucel (hydroxypropylcellulose) (HPC)) was 7 of 10 and the survivor count (dose: 12.5 mg/kg/injection, schedule: Q01DX009 (ip), vehicle: other) was 0 of 6. For the same compound, the survivor count (dose: 15.0 mg/kg/injection, schedule: Q01DX005 (ip), vehicle: Klucel (hydroxypropylcellulose) (HPC)) was 3 of 10 and the survivor count (dose: 25.0 mg/kg/injection, schedule: Q01DX009 (ip), vehicle: other) was 0 of 6.
In the case of `CCN(CC)CCCC(C)NCCCN` (stereo unspecified), the survivor count (dose: 400.0 mg/kg/injection, schedule: Q04DX003 (ip), vehicle: saline) is reported as 1 of 6.
For `CS(=O)(=O)c1nnc(-c2cccc[n+]2[O-])s1`, the survivor count [1] was 0 of 6.
For `O=C(CNC(=O)NCc1ccco1)N/N=C/c1ccccc1O`, the survivor count [2] was 4 of 6.
In the case of `NC1CC1N` (stereo unspecified), the survivor count (dose: 50.0 mg/kg/injection, schedule: Q01DX009 (ip), vehicle: saline) is reported as 6 of 6, the survivor count [3] is reported as 0 of 6 and the survivor count (dose: 200.0 mg/kg/injection, schedule: Q01DX009 (ip), vehicle: saline) is reported as 0 of 6.
`COC(=O)/C=C/c1cc(=O)n2c(nc3ccccc32)s1` was tested, and the survivor count (dose: 60.0 mg/kg/injection, schedule: Q01DX005 (ip), vehicle: Klucel (hydroxypropylcellulose) (HPC)) was 6 of 6, the survivor count (dose: 120.0 mg/kg/injection, schedule: Q01DX005 (ip), vehicle: Klucel (hydroxypropylcellulose) (HPC)) was 5 of 6 and 6 of 6 and the survivor count (dose: 240.0 mg/kg/injection, schedule: Q01DX005 (ip), vehicle: Klucel (hydroxypropylcellulose) (HPC)) was 5 of 6 and 6 of 6.
`O=S(=O)(O)O.[NH-]C(c1ccccc1)C([NH-])c1ccccc1.[Pt+2]` (stereo unspecified) was tested, and the T/C (dose: 1.56 mg/kg/injection, schedule: Q04DX002 (ip), vehicle: saline) was 146 % of control, the T/C (dose: 6.25 mg/kg/injection, schedule: Q04DX002 (ip), vehicle: saline) was 125 and 137 % of control and the T/C (dose: 12.5 mg/kg/injection, schedule: Q04DX002 (ip), vehicle: saline) was 139 % of control.
For `COCCCOC(=O)NCCCCC([NH-])C(=O)O.COCCCOC(=O)NCCCCC([NH-])C(=O)O.[Cu+2]` (stereo unspecified), the survivor count [4] was 0 of 6, the survivor count [5] was 0 of 6 and the survivor count [1] was 0 of 6.
With `CCN(CC)CCN(CC)c1ccccc1` the survivor count (dose: 200.0 mg/kg/injection, schedule: Q01DX005 (ip), vehicle: saline with Tween-80) was 0 of 5.
`CCCCCCCCCCCCCCCCS(=O)(=O)N/N=c1\cc(-c2ccccc2Cl)c2ccccc2n1C` was tested, and the survivor count [3] was 5 of 6.
With `S=C1SCN(Cc2ccco2)CN1Cc1ccco1` the survivor count [2] was 4 of 6.
With `CN(C)c1cnc(N)nc1N` the survivor count (dose: 50.0 mg/kg/injection, schedule: Q01DX005 (ip), vehicle: saline) was 4 of 6 and the survivor count (dose: 200.0 mg/kg/injection, schedule: Q01DX005 (ip), vehicle: saline) was 0 of 6.
`CCCCCCCCCCCCCCCCCC[N+](C)(C)C` (tested in a mixture with another compound) was tested, and the survivor count (dose: 6.0 mg/kg/injection, schedule: Q01DX009 (ip), vehicle: saline with Tween-80) was 6 of 6 and the survivor count (dose: 25.0 mg/kg/injection, schedule: Q01DX009 (ip), vehicle: saline) was 6 of 6.
For `COc1ccc(Cc2cc(N=NC(N)=O)c(C)cc2O)cc1`, the survivor count [4] was 6 of 6, the survivor count [5] was 6 of 6 and the survivor count [1] was 6 of 6.

From PubChem BioAssay AID330 (DTP/NCI, 2004)
